Measured values reported in PMC12494820, “Predicting input signals of transcription factors in Escherichia coli” (Molecular Systems Biology, 2025).
For at least one entry, the source does not settle the construct or the ends of the probe. At least one verdict rests on a figure or table, not on a statement of the authors.

Chains of the proteins cited; added tags and fusions are not shown. Lines headed by an entry give the natural chain unless they say otherwise; changes in a name come on top.
UniProt P10151: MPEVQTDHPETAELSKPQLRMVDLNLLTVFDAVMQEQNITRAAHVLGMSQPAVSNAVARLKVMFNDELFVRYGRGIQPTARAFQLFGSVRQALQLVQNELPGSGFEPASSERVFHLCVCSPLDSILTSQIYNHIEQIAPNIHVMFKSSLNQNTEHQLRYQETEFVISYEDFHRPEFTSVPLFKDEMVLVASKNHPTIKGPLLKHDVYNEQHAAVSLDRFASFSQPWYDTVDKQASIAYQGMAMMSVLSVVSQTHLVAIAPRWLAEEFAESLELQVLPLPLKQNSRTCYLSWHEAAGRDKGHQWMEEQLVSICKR

Molecular target: LeuO (Escherichia coli) (UniProt P10151)
Test: EMSA
Conditions: EMSA: 10 mM Tris-HCl, 50 mM KCl, 5 mM MgCl2, 5% glycerol, 0.1 mg/ml BSA, pH 7.5, 500 ng salmon sperm DNA in 20 µl, 15 min at room temperature, gel 0.5x TBE at 4 °C, recombinant protein, label: Cy5 at 5' end of forward primer, probe letters rebuilt from the primers and the genome

## GGAATGAGTCATTTACCACAGCATAATAATCCATAATGTTTTTGTTGCGAAAACAATCTAATCATAACTACCGCGAATACTCAATCATCTACAAAATGGATTAAATGTGCTTATTTAATAATTAATTTATATATTTAATGCATTAATTCTTAACATTAATTGATCAATAATATTCACCAAATCAATATCAAAAAAAATCGCAAAACATATAATTCAATACAAATCATCAGGATAGGTTTTGCAACGCGTGCATTTTGTCCCCTTTTTCCTCGTTGATTAGATGCAAAAATTTATGCTGAAATATGTCAACCGATGAAAAGCGTCGG (double strand) [leuLABCD promoter region fragment]
10 mM 2-isopropylmalate, binding significantly enhanced
  binding result: binds
10 mM 3-isopropylmalate, no significant enhancement
  binding result: binds
10 mM 3-methyl-2-oxobutanoate, no significant enhancement
  binding result: binds
10 mM pyruvate, no significant enhancement
  binding result: binds
No metabolite, 25 nM LeuO is the concentration used, chosen as about half of DNA bound
  half-maximal binding: 25 nM
